{"source": "patent US6127355A", "about": "(priority 1999, dated 2000)", "assay": "T1/2 in rat plasma", "type": "in vitro ADME", "note": "The name of at least one read-out is uncertain.", "data": [{"substance": "camptothecin-20-O-PEG5kDa carbamate [Compound 57]", "values": [{"measurement": "T1/2 in rat plasma", "value": 7.5, "unit": "h"}]}]}
